Measured values taken from PMC2944808.
Results are given in words; binding and its absence hold for the method and conditions named. Some entries that bind do so weakly or less than the wild type.

Chains of the proteins cited; added tags and fusions are not shown. Residues count along the entry.
UniProt Q9Z0E2, residues 27-948: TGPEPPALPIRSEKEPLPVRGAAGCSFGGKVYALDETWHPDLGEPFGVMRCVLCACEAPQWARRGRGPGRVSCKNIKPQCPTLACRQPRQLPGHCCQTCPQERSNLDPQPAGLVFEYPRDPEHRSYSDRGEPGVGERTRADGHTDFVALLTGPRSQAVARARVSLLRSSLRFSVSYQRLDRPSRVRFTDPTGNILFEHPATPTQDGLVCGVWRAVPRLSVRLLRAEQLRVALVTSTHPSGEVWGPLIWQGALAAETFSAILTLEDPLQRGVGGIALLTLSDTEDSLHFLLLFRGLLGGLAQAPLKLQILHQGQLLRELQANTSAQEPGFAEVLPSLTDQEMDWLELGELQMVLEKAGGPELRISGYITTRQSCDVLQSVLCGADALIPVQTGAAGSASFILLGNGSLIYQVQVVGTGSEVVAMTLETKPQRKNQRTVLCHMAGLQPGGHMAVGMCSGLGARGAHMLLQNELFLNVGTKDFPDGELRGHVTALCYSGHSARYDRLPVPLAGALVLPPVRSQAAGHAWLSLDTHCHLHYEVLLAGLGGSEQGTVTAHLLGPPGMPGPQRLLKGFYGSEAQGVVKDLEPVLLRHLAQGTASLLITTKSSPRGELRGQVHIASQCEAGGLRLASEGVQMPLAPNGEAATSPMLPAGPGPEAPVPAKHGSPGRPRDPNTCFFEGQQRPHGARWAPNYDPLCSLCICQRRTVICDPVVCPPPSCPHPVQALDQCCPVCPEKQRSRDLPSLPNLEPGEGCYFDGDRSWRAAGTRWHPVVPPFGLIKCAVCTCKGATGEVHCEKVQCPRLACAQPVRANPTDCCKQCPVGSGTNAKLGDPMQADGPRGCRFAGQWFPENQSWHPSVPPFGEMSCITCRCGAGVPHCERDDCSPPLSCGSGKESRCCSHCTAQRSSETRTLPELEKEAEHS

Columns and labels:
[1] = target: Chordin, full-length, mouse (mouse) (UniProt Q9Z0E2); experiment: co-IP; recombinant His6-tagged Chordin and His6-tagged CV2-T5P/I21R mixed, then BMP2; anti-His-tag antibody and protein A Sepharose; not shown; both purified
[2] = target: Chordin, full-length, mouse (mouse) (UniProt Q9Z0E2); experiment: co-IP; recombinant His6-tagged Chordin and His6-tagged CV2 ΔClip mixed in 200 µl binding buffer for 1h at 4°C, then BMP2 for 1h at 4°C; precipitated with anti-His-tag antibody and protein A Sepharose; BMP2 detected by blot; both purified
[3] = target: Chordin, full-length, mouse (mouse) (UniProt Q9Z0E2); experiment: SPR; BIAcore; BMP2/Chordin binding in the presence of CV2-T5P/I21R; not shown; both purified
[4] = target: Chordin, full-length, mouse (mouse) (UniProt Q9Z0E2); experiment: SPR; BIAcore; Chordin immobilised; 500, 1000 and 3000 nM CV2 ΔClip perfused for 120 seconds, then the same concentration of CV2 ΔClip plus 100 nM BMP2; 100 nM BMP2 alone as positive control; both purified

Measured: binding

B1: BMP2, human (ligand, UniProt P12643 283-396)
chain: QAKHKQRKRLKSSCKRHPLYVDFSDVGWNDWIVAPPGYHAFYCHGECPFPLADHLNSTNHAIVQTLVNSVNSKIPKACCVPTELSAISMLYLDENEKVVLKNYQDMVVEGCGCR
binds: all assays above
